The record followed here is article PMC3779320, “Bub3 reads phosphorylated MELT repeats to promote spindle assembly checkpoint signaling” (eLife, 2013).

For this experiment, the target named is T1, ScBub1^289–359–Bub3 complex (S. cerevisiae) (UniProt P41695+P26449).
T1 sequence 1: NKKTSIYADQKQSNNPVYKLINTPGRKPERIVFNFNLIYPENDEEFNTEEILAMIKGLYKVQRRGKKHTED
T1 sequence 2: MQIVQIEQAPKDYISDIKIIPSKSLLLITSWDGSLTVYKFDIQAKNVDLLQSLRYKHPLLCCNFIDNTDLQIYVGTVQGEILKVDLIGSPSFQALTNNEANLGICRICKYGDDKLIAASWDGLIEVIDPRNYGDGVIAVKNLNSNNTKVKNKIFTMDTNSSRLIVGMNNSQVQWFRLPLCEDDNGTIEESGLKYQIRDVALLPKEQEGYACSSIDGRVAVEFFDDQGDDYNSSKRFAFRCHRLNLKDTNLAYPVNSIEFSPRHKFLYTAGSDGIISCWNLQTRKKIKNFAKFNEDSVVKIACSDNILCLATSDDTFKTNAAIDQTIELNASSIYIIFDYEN
In words: ITC; 25°C, MicroCal ITC200; 20 mM Tris pH7.5, 150 mM NaCl, 1 mM DTE; Bub1^289–359–Bub3 in the cell at 30 µM, titrated with thirty-five 2-µl injections of peptide at 400 µM; single-site binding model; both purified. Background: In ITC the heat of successive injections is recorded.

Results are given in words; binding and its absence hold for the method and conditions named. Sequences can lack the tags named with a protein.

B1: Histone H1-derived phosphorylated peptide (peptide)
peptide: GGGPATPKKAKKL
modifications: phosphothreonine ({pTHR}) at the 6th residue of the peptide
On to B1, for which the binding entry is reported as “no binding”.
